The target in the experiment is T1, WalR wild type fused to SmBIT or LgBIT (split luciferase) (S. aureus ATCC29213) (UniProt Q7A8E1).
T1 sequence: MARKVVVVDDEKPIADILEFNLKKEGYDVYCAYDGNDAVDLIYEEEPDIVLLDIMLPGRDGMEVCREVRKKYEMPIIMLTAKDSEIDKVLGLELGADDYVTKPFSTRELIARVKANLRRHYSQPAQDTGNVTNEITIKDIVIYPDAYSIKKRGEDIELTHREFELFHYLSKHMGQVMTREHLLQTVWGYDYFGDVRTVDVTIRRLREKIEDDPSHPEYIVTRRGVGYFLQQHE
Briefly: split reporter.

Results are given in words; binding and its absence hold for the method and conditions named. Binding seen in cells or lysates may run through a third protein. Binding can be weak; no strength is given. Tags and fused reporters may be left off the sequences shown.

In the case of “PknB (cytoplasmic domain only) fused to LgBIT (split luciferase) (from UniProt A0A0H2XGG5) (domain or fragment)”, the binding entry is “binds”.

The values above are taken from doi:10.1101/2025.07.12.664526 (bioRxiv, 2025).
